Experiment: peptide synthesis
Conditions: coupling step, TFA salt (deprotected amines)

Substance	step yield
(2S,4R)—N—((S)-2-(((3S,6S,9S)-3-((5-chloro-2-methylpyridin-3-yl)methyl)-6-isobutyl-4-methyl-2,5,8-trioxo-1,4,7-triazacyclohexadecan-9-yl)(methyl)amino)-1-cyclopropyl-2-oxoethyl)-1-(3,3-difluoro-1-(trifluoromethyl)cyclobutane-1-carbonyl)-4-fluo	28%
N—((S)-1-(((S)-1-(((3S,6S,9S)-3-(2,5-dichlorobenzyl)-6-isobutyl-4-methyl-2,5,8-trioxo-1,4,7-triazacyclohexadec-11-en-9-yl)amino)-1-oxopropan-2-yl)amino)-1-oxobutan-2-yl)-1-(trifluoromethyl)cyclopropane-1-carboxamide	14%
Tert-butyl ((S)-2-(((3S,6S,9S,Z)-3-((5-chloro-2-cyclopropoxypyridin-3-yl)methyl)-6-isobutyl-1,4-dimethyl-2,5,8-trioxo-1,4,7-triazacyclohexadec-11-en-9-yl)(methyl)amino)-1-cyclopropyl-2-oxoethyl)carbamate	25%
Tert-butyl((1S,4S,7S,10S)-4-allyl-10-(2-bromo-5-fluorobenzyl)-1-cyclopropyl-7-isobutyl-3,9,12-trimethyl-2,5,8,11-tetraoxo-3,6,9,12-tetraazaoctadec-17-en-1-yl)carbamate	70% yield

Same assay, conditions: late stage modification step, TFA salt

Substance	step yield [%]
(S)-2-amino-N-((3S,6S,9S)-3-(5-chloro-2-(1-(methylsulfonyl)-1H-pyrazol-4-yl)benzyl)-6-isobutyl-4-methyl-2,5,8-trioxo-1,4,7-triazacyclohexadec-12-en-9-yl)-2-cyclopropyl-N-methylacetamide	100.0
(S)-2-amino-N-((3S,6S,9S)-3-(5-chloro-2-(5-methyl-1,3,4-oxadiazol-2-yl)benzyl)-6-isobutyl-4-methyl-2,5,8-trioxo-1,4,7-triazacyclohexadec-11-en-9-yl)-2-cyclopropyl-N-methylacetamide	100

Same assay, conditions: late stage modification step, TFA salt (deprotected amines)

Substance	step yield
(2S,4R)—N—((S)-2-(((3S,6S,9S)-3-((5-chloro-1-methyl-1H-indol-7-yl)methyl)-6-isobutyl-1,4-dimethyl-2,5,8-trioxo-1,4,7-triazacyclohexadecan-9-yl)(methyl)amino)-1-cyclopropyl-2-oxoethyl)-1-(3,3-difluoro-1-(trifluoromethyl)cyclobutane-1-carbonyl)-4-fluoropyrrolidine-2-carboxamide	9.21%
((S)-2-(((3S,6S,9S)-3-(2-bromo-5-chlorobenzyl)-6-isobutyl-4-methyl-2,5,8-trioxo-1,4,7-triazacyclohexadecan-9-yl)(methyl)amino)-1-cyclopropyl-2-oxoethyl)carbamate	98%
Ethyl 4-(2-(((3S,6S,9S)-9-((S)-2-((tert-butoxycarbonyl)amino)-2-cyclopropyl-N-methylacetamido)-6-isobutyl-4-methyl-2,5,8-trioxo-1,4,7-triazacyclohexadec-11-en-3-yl)methyl)-4-chlorophenyl)-3,6-dihydropyridine-1 (2H)-carboxylat	51%
Tert-butyl ((S)-2-(((3S,6S,9S)-3-(2-(1-acetyl-1,2,3,6-tetrahydropyridin-4-yl)-5-fluorobenzyl)-6-isobutyl-1,4-dimethyl-2,5,8-trioxo-1,4,7-triazacyclohexadec-11-en-9-yl)(methyl)amino)-1-cyclopropyl-2-oxoethyl)carbamate	63%
Tert-butyl ((S)-2-(((3S,6S,9S)-3-(2-(1-acetyl-1,2,3,6-tetrahydropyridin-4-yl)-5-fluorobenzyl)-6-isobutyl-1,4-dimethyl-2,5,8-trioxo-1,4,7-triazacyclohexadecan-9-yl)(methyl)amino)-1-cyclopropyl-2-oxoethyl)carbamate	85%
tert-butyl ((S)-2-(((3S,6S,9S)-3-(2-(1-acetyl-1,2,3,6-tetrahydropyridin-4-yl)-5-chlorobenzyl)-6-isobutyl-1,4-dimethyl-2,5,8-trioxo-1,4,7-triazacyclohexadecan-9-yl)(methyl)amino)-1-cyclopropyl-2-oxoethyl)carbamate	86.7%
tert-butyl ((S)-2-(((3S,6S,9S)-3-(5-chloro-2-(1-(methylsulfonyl)-1H-pyrazol-4-yl)benzyl)-6-isobutyl-4-methyl-2,5,8-trioxo-1,4,7-triazacyclohexadec-12-en-9-yl)(methyl)amino)-1-cyclopropyl-2-oxoethyl)carbamate	79%
tert-butyl ((S)-2-(((3S,6S,9S)-3-(5-chloro-2-(4,4,5,5-tetramethyl-1,3,2-dioxaborolan-2-yl)benzyl)-6-isobutyl-1,4-dimethyl-2,5,8-trioxo-1,4,7-triazacyclohexadecan-9-yl)(methyl)amino)-1-cyclopropyl-2-oxoethyl)carbamate	1.51% yield
tert-butyl ((S)-2-(((3S,6S,9S)-3-(5-chloro-2-(5-morpholinopyridin-2-yl)benzyl)-6-isobutyl-1,4-dimethyl-2,5,8-trioxo-1,4,7-triazacyclohexadecan-9-yl)(methyl)amino)-1-cyclopropyl-2-oxoethyl)carbamate	46%
tert-butyl ((S)-2-(((3S,6S,9S)-3-((5-chloro-2-methylpyridin-3-yl)methyl)-6-isobutyl-4-methyl-2,5,8-trioxo-1,4,7-triazacyclohexadecan-9-yl)(methyl)amino)-1-cyclopropyl-2-oxoethyl)carbamate	95%
